For one assay, the target named is T1, Spindle E (Drosophila) (UniProt Q9VF26).
T1 sequence: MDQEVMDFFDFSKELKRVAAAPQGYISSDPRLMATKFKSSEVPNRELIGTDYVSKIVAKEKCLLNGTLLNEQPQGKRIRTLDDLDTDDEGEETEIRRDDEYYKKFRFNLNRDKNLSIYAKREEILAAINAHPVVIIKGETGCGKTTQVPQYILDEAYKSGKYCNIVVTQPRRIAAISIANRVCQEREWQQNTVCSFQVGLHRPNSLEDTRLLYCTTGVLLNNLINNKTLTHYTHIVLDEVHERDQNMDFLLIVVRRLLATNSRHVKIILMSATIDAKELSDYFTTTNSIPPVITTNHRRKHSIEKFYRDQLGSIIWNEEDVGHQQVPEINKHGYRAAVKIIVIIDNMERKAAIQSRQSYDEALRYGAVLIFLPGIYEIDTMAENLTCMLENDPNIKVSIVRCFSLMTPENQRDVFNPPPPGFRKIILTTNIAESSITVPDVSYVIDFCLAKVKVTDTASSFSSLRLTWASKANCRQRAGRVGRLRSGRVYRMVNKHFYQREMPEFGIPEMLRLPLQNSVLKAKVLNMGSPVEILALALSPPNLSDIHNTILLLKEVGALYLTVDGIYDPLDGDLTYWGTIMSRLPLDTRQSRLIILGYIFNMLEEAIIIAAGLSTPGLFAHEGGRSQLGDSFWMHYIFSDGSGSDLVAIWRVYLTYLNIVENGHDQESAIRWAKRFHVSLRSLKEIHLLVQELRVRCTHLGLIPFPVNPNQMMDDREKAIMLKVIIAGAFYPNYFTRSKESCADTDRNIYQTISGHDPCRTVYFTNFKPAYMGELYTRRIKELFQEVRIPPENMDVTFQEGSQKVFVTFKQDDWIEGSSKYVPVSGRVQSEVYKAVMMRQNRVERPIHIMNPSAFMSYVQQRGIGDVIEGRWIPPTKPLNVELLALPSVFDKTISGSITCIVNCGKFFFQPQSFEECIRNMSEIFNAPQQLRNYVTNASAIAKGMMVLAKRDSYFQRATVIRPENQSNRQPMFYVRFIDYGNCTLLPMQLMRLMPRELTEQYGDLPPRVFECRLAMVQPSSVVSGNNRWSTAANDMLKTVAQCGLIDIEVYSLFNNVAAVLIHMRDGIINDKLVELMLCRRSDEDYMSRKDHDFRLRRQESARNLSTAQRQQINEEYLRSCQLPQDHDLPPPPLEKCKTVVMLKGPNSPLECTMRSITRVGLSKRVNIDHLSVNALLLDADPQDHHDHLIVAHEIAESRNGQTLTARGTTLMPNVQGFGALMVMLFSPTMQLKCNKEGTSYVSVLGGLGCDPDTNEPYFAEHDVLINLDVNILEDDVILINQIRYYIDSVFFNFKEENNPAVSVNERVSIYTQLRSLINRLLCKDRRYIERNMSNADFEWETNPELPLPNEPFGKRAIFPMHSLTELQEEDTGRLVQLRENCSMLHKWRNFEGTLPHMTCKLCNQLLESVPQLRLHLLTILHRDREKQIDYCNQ
In words: ReLo.

Chains of the proteins cited; added tags and fusions are not shown. Lines headed by an entry give the natural chain unless they say otherwise; changes in a name come on top.
UniProt Q9VKM1: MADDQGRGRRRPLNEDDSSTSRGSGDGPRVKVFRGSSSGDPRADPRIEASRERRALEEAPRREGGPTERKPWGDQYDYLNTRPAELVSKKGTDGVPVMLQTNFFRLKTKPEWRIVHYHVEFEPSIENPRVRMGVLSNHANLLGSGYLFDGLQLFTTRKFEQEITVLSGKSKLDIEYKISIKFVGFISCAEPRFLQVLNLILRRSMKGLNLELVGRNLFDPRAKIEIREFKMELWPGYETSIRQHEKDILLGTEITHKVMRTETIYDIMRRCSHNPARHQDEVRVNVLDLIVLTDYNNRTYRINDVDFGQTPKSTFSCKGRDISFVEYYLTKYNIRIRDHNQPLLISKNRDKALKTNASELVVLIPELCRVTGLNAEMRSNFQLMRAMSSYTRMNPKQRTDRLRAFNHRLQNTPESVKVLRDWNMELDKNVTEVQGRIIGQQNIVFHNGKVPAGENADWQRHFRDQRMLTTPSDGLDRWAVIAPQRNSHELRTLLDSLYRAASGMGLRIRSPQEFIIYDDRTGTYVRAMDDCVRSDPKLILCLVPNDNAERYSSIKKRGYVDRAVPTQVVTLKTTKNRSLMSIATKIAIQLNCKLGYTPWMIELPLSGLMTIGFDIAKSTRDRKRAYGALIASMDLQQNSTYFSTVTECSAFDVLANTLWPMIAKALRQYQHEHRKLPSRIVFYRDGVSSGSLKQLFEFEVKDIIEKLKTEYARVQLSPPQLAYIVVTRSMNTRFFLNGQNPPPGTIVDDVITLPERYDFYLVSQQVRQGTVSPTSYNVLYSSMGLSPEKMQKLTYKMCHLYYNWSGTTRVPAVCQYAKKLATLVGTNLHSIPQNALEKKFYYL

The target of assay [1] is T2, Spindle E MUT (Drosophila) (UniProt Q9VF26).
T2 sequence: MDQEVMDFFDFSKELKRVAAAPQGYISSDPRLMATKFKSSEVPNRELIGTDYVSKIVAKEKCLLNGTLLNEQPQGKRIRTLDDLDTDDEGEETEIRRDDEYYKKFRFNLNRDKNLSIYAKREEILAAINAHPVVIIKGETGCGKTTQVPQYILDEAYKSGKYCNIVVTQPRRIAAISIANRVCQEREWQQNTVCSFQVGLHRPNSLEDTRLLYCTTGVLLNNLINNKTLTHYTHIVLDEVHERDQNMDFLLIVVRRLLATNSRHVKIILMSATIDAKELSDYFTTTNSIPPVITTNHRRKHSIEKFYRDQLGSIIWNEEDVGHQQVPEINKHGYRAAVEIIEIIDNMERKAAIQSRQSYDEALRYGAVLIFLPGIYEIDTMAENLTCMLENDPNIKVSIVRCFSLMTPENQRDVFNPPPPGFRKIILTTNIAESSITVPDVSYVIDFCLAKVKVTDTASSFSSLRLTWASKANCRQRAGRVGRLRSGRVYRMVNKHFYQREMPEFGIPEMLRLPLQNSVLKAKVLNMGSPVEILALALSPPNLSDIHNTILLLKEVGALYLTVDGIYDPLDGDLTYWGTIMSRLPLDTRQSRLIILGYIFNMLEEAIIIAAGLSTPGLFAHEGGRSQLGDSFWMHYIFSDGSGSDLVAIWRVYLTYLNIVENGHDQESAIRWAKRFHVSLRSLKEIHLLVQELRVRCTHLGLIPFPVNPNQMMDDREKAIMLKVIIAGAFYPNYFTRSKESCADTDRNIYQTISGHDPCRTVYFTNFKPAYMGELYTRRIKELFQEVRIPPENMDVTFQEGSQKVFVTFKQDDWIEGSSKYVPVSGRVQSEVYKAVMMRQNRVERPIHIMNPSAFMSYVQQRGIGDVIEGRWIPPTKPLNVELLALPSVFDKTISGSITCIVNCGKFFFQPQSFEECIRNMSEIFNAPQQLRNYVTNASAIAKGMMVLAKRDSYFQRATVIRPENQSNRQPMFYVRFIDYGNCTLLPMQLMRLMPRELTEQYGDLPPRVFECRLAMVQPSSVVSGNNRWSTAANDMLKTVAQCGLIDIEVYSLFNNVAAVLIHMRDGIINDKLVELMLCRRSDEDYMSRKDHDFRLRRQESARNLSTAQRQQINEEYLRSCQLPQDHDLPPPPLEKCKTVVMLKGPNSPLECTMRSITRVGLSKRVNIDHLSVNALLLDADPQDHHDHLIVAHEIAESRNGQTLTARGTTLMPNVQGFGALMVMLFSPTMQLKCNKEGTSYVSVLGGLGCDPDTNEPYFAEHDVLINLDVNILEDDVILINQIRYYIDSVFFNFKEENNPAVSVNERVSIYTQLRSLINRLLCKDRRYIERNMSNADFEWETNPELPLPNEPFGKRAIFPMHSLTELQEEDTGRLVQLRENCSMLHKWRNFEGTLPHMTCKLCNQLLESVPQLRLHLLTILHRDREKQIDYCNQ
In words: ReLo.

The target of a further assay is T3, Papi (Drosophila) (UniProt Q9VQ91).
T3 sequence: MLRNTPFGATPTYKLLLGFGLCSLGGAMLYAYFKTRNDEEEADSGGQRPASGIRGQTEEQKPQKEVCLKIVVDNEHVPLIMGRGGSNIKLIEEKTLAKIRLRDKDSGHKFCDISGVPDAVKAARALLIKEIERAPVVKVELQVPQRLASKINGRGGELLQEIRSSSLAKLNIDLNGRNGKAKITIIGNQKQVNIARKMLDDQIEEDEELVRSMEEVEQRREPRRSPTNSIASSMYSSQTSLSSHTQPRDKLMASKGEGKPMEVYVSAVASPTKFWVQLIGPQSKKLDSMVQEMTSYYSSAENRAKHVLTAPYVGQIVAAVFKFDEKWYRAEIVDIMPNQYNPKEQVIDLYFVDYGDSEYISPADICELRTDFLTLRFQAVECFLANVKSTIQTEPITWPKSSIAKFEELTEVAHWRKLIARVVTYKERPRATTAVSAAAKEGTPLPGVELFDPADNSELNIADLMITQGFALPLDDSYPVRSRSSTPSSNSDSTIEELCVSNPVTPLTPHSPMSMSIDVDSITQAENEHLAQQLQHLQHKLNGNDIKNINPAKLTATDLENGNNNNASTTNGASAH
Kind of assay: ReLo.

Assay [2] deals with GST-superfolder-GFP (GsfG)-Tejas (Drosophila). In words: condition: 2 nmol MBP fusion, 1 nmol GST fusion in 100 µl.
For another assay, the target named is GST-Tejas (Drosophila). Kind of assay: condition: 5 nmol MBP fusion, 1 nmol GST fusion in 100 µl.

No constants are given. Whether binding was seen depends on the method and setting. For some assays here: A result given as binding can be weak or reduced; the word gives no strength. For some assays here: Where a sequence is shown, tags or fusion partners need not be part of it.

Regarding Tejas (Drosophila), the binding result is “binds” with Spindle E (Drosophila) and “no binding” in assay [1].
In the case of “Piwi lacking the N-terminus (residues 1-90 deleted) (from UniProt Q9VKM1) (domain or fragment)”, in the assay with Papi (Drosophila), the binding entry is “no binding”.

B1: MBP-Maelstrom lacking aa 413-459 (domain or fragment, UniProt Q9VNS0 1-412)
chain: MAPKKHSGFMMFVNEWRNRNAEGRRMTLAQAVSHCGTIWEKMNTQQRGPYNSGGKDANVAQRAKRESSNGHGQVDKAQREATESLMDMKRTIERLVLNAKMSHDLENAKFVFVAFNYFTKALTTDVYVPAEFAACEYSLKEGIRSIYSTMIDPGQIIFGQGSDALLHSSTTHDLPLPPNALGEKNMTKLYRNIVDYLSKCQGKGKTLVVFTPAENITMVKSCFRYLECDDDFRDGGEKIQVFDIQYLLFILKKEVMNVADLNDEKINKFATDAFFKKDFFEFTAGIACQYHEDNDRTKYCTQSMVTRWAYTFTDFMCGDLAITVQPGKHIPAQTKPNYLIISSYASSLDHESSFDSFYSLPGSGVKKESQPEACSLSSSRLSVASSSYKPIDHTSFAANLNEVSEFPSLGMR
With B1, the binding entry in assay [2] is on record as “no binding”.
On to NSSKHHGIAASAQREWNARNLPTHSRLIRKESDNDESENGADGKLKK (domain or fragment, UniProt Q9VNS0 413-459) [MBP-fused Mael C-terminus (aa 413-459), mutated version], for which the binding entry in the assay with GST-Tejas (Drosophila) was “no binding”.

For the origin of these results see publication doi:10.1101/2024.05.31.596839.
